This test addresses T1, ATPase family AAA domain-containing 3A (ATAD3A), endogenous (human (endogenous in MDA-MB-468, BT549, HeLa229, HEK293T)) (UniProt Q9NVI7).
T1 sequence: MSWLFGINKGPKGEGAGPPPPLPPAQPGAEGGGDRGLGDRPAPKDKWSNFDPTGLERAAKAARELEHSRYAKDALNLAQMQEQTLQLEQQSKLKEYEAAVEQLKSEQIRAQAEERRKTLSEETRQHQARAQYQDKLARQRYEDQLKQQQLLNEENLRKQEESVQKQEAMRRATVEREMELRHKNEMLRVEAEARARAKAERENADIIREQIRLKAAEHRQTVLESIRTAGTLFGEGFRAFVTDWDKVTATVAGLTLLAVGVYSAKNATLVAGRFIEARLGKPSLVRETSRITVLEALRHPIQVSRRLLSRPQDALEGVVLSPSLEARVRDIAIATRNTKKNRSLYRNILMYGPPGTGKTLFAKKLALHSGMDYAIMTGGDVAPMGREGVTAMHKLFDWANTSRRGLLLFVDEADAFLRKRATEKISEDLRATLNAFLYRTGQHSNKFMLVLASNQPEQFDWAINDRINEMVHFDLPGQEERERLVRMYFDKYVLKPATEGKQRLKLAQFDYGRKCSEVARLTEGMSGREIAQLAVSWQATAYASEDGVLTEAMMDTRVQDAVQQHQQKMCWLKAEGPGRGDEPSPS
Description: co-IP; HEK293T cells transfected with GFP-MUC1-CD truncated mutant plasmids; IP with anti-ATAD3A antibody, blot with anti-GFP and anti-ATAD3A.

These are yes or no findings as the source states them, for the method shown. In cells and extracts the contact can be indirect. Binding calls can cover weak binding; strength is not graded here.

In the case of GFP-MUC1-CD1-20 (domain or fragment), the binding entry is “binds”.

Source of the values: publication PMC9606306.
